EP2703005A1, “Inhibitors of alpha6 Integrin/E-Cadherin Complex” (Università Degli Studi Di Torino, priority 2012, dated 2014)
No constants are given. Whether binding was seen depends on the method and setting. Some binding calls cover weakened binding; strength is not graded here.

Protein sequences, listed by entry. Tags and fused reporters are not part of them. Lines headed by an entry give the natural chain unless they say otherwise; changes in a name come on top.
UniProt P16144: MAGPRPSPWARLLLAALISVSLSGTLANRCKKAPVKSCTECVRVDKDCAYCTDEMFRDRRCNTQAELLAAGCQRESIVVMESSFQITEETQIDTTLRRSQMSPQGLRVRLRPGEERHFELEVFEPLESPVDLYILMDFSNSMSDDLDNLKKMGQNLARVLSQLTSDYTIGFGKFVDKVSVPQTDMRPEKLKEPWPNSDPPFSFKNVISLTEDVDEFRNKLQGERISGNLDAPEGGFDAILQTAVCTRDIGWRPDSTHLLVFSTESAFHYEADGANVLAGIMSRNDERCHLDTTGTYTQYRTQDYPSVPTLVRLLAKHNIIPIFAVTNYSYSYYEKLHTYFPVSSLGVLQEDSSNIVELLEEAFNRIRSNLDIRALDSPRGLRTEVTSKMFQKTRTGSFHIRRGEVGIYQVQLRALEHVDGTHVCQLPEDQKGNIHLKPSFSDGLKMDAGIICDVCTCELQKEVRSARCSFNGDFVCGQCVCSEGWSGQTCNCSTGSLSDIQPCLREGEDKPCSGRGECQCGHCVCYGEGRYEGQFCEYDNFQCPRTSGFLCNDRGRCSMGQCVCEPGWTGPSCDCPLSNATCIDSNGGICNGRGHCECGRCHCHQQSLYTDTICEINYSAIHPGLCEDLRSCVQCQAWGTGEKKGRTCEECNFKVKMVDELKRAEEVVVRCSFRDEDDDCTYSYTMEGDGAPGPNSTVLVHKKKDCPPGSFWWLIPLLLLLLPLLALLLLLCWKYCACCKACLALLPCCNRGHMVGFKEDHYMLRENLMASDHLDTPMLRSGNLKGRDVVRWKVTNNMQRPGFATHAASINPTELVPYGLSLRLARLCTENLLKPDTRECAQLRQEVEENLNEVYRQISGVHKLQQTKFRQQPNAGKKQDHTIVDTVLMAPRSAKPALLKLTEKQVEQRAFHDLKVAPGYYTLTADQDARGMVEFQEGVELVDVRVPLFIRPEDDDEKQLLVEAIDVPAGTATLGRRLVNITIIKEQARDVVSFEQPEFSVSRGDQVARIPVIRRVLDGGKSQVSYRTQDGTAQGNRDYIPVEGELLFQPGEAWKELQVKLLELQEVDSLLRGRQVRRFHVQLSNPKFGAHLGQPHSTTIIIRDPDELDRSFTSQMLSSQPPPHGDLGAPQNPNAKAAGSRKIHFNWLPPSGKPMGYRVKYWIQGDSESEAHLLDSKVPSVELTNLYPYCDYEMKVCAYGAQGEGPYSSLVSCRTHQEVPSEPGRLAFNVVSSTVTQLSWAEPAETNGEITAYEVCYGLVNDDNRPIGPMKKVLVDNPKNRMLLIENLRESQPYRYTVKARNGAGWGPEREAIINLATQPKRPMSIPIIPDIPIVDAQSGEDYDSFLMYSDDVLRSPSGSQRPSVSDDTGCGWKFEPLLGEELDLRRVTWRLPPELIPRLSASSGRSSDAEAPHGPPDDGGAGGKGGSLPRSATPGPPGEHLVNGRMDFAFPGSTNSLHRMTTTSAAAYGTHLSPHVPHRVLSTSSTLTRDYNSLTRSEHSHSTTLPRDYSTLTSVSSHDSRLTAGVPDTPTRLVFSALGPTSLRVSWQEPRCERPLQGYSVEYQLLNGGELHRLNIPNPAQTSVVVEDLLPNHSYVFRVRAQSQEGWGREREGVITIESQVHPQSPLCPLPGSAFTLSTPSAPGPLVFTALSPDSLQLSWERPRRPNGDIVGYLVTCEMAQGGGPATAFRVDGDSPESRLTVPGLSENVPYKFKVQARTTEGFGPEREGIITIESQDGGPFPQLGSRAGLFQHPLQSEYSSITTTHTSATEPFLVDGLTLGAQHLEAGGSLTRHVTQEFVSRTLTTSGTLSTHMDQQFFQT

Experiments:
[1] = biological target: α6β4 integrin from human liver metastases (human) (UniProt P16144); experiment: peptide affinity column, elution with free peptide, ELISA for integrin subunits
[2] = biological target: α6β4 integrin from human liver metastases (human) (UniProt P16144); experiment: peptide affinity column fractions, phage binding and ELISA (Figure 8C, D)

binding [1]: binds | binding [2]: binds
Binder: CGIYRLRSC [… peptide (synthetic)]
